# Data source: PubChem BioAssay AID504784 (Drosophila RNAi Screening Center, 2011)
# Test: 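Genome-wide knock-down for genes giving too much or too little stored lipid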 (primary screen)
# System: Drosophila Kc167 embryonic cells
# Reagents: long dsRNA against Drosophila genes, about 250 ng dsRNA per well
# Time to read-out: 4 days
# Treatment: cells fed 400 µM oleic acid bound to BSA
# Read-out: 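Cells imaged and segmented; ratio of lipid droplet area to nuclear area, log-transformed, then normalised as a B-score over the screen; higher means more stored lipid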
# Scale: droplet/nuclear area B-score: higher = more stored lipid (overstorage)
# The screen tested about 17,000 reagents; below is a random part of those with a known target gene and a result. 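Each column is one replicate's B-score; the combined score over replicates was not deposited, so single values may mislead.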
target,dsRNA,"droplet/nuclear area B-score, replicate 1","droplet/nuclear area B-score, replicate 2","droplet/nuclear area B-score, replicate 3"
dec (defective chorion),DRSC18759,0.237,0.182,
dec (defective chorion),DRSC21477,-0.127,1.14,
CG15498,DRSC15040,0.539,0.79,
SRPK (SR Protein Kinase),DRSC07090,0.397,0.29,
lncRNA:CR41601 (long non-coding RNA:CR41601),DRSC22158,0.287,0.983,
CG31729,DRSC02524,-0.407,0.153,
CG31729,DRSC02946,-1.43,-0.517,
CG15760,DRSC19725,0.902,0.641,-0.683
Nup44A (Nucleoporin at 44A),DRSC07248,0.267,1.17,
dpy (dumpy),DRSC00233,0.163,0.523,
dpy (dumpy),DRSC00234,0.0927,0.855,
dpy (dumpy),DRSC00472,-0.893,0.711,
CG33303,DRSC02848,1.47,0.995,
CG44153,DRSC02228,-0.765,0.00873,
CG44153,DRSC02229,0.663,-1.07,
CG44153,DRSC02902,-0.523,-0.763,
CG44153,DRSC02903,-0.465,0.13,
CG11596,DRSC18540,0.178,-0.681,
Tgi (Tondu-domain-containing Growth Inhibitor),DRSC09793,-0.455,-0.341,
Tgi (Tondu-domain-containing Growth Inhibitor),DRSC09794,-0.261,-0.467,
Nepl14 (Neprilysin-like 14),DRSC15631,-1.41,0.231,
rgr (regular),DRSC06487,1.44,3.08,
rgr (regular),DRSC07229,0.902,2.96,
7B2,DRSC11991,-0.0958,0.56,
Pef (Peflin),DRSC06695,-1.14,-1.38,
l(3)87Df (lethal (3) 87Df),DRSC16982,-0.941,0.873,
CG14657,DRSC12219,-1.23,-1.9,
CG14657,DRSC12243,-2.76,0.267,
Lcp65Aa,DRSC11209,,-0.094,
htl (heartless),DRSC16968,-0.382,0.627,
flap (flapper),DRSC03918,-1,-0.694,
flap (flapper),DRSC04087,0.824,1.04,
CG31106,DRSC14655,-1.07,0.0204,
dsf (dissatisfaction),DRSC03524,-1.56,-0.45,
CG8908,DRSC07297,1.3,0.326,
CG2225,DRSC03722,-0.0657,-0.0466,
CG2225,DRSC03723,0.0821,-2.11,
fs(1)N (female sterile (1) Nasrat),DRSC18578,0.495,-0.0388,
up (upheld),DRSC20382,0.336,0.596,-2.39
CG5895,DRSC10554,0.631,-0.492,
CG17167,DRSC20902,-0.119,-0.494,
CG17167,DRSC20903,-3.64,-3.03,
fand (fandango),DRSC06967,-0.563,1.71,

Just “droplet/nuclear area B-score, replicate 1” (4 entries from above):
htl (heartless) [DRSC16968]: -0.382
flap (flapper) [DRSC03918]: -1
flap (flapper) [DRSC04087]: 0.824
CG31106 [DRSC14655]: -1.07

The results go on:
target,dsRNA,"droplet/nuclear area B-score, replicate 1","droplet/nuclear area B-score, replicate 2","droplet/nuclear area B-score, replicate 3"
Cyp4p2 (Cytochrome P450 4p2),DRSC07373,-0.456,-1.29,
CG30053,DRSC07260,0.0282,0.506,
CG12402,DRSC14508,0.125,0.0425,
Rbp9 (RNA-binding protein 9),DRSC00416,-0.42,4.23,
Rbp9 (RNA-binding protein 9),DRSC00779,1.32,2.61,
CG10962,DRSC18421,-0.988,0.0386,-0.708
bsf (bicoid stability factor),DRSC02035,0.0367,-0.902,
CG31031 (retired record),DRSC13964,-1.29,0.0554,
CG3280 (retired record),DRSC10356,0.0105,1.05,
Cpr11B (Cuticular protein 11B),DRSC19859,-1.05,-1.61,-1.14
CG9485,DRSC04557,-2.3,-0.521,
CG42709,DRSC10277,-1.22,-0.482,
CG9068,DRSC07329,-1.23,0.644,
ksr (kinase suppressor of ras),DRSC12379,-1.29,1.39,
neb (nebbish),DRSC03577,0.691,0.0616,
glu (gluon),DRSC03539,0.4,0.227,
"Adat1 (Adenosine deaminase, tRNA-specific 1)",DRSC03479,-0.387,-1.7,
CheB98a (Chemosensory protein A 98a),DRSC14882,0.58,-1.71,
nan (nanchung),DRSC10551,-0.349,-0.454,
Dop1R1 (Dopamine 1-like receptor 1),DRSC13021,-0.192,0.279,
Dop1R1 (Dopamine 1-like receptor 1),DRSC16652,1.53,-0.46,
BaraC (Baramicin C),DRSC03885,3.52,0.0167,
L (Lobe),DRSC06666,0.702,-0.513,
L (Lobe),DRSC06668,0.0899,-0.392,
CG33489,DRSC10588,0.032,-0.432,
Spn85F (Serpin 85F),DRSC14545,0.0973,-0.0699,
Sgs4 (Salivary gland secretion 4),DRSC18715,-0.0464,-0.00751,
Argk1 (Arginine kinase 1),DRSC08959,0.614,-0.692,
Argk1 (Arginine kinase 1),DRSC09668,0.0166,0.377,
Argk1 (Arginine kinase 1),DRSC10460,-2.43,0.272,
Argk1 (Arginine kinase 1),DRSC21558,2.41,2.85,
Argk1 (Arginine kinase 1),DRSC22665,0.91,1.04,
Pp2C1 (Protein phosphatase 2C),DRSC18699,-0.822,0.729,0.542
Pp2C1 (Protein phosphatase 2C),DRSC23287,0.182,1.49,
CG13217,DRSC06339,0.212,0.555,
CG7829,DRSC16322,0.0328,1.75,
CG12206,DRSC17828,2.01,0.617,
CCHa2-R (CCHamide-2 receptor),DRSC04870,-2.2,0.059,
CCHa2-R (CCHamide-2 receptor),DRSC04871,-3.02,1.25,
CG13127,DRSC02223,0.137,0.387,
